Experimental data reported in patent US10696677B2 (Research Triangle Institute, priority 2016, dated 2020).
At least one structure is not confirmed: it was looked up by name or label, or the drawing left a doubt.

By UniProt entry, the sequences of proteins in these tests, tags left out.
UniProt P21554, whole entry: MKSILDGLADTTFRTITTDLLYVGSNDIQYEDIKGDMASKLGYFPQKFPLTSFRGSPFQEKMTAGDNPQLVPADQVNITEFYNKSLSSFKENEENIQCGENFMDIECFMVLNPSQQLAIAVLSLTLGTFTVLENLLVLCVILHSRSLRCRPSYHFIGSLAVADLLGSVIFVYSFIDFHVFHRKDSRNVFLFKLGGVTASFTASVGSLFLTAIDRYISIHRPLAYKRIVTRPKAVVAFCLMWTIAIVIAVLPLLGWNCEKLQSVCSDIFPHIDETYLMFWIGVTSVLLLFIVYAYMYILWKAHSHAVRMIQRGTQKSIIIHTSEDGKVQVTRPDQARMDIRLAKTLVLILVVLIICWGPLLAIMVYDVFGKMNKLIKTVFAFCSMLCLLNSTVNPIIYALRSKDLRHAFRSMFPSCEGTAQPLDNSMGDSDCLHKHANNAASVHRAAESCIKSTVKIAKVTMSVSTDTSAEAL

Experiments:
hCB1 [1] = target: T1, hCB1 (Homo sapiens, UniProt P21554); assay: radioligand displacement binding at CB1 (membranes of CHO-K1 cells over-expressing receptor); conditions: CB1 versus CB2
hCB1 [2] = target: T1, hCB1; assay: functional fluorescent CB1 activated Gαq16-coupled intracellular calcium mobilization assay in CHO-K1 cells; type: cell-based; set-up: expressed in transfected cells; host or cells: CHO-K1 (membranes); conditions: average of 3-6 measurements, read-out: Apparent antagonist dissociation constant (Ke) at hCB1

Compound: O/N=C(/c1ccc(F)cc1)C1CCN(c2ncnc3c2nc(-c2ccccc2Cl)n3-c2ccc(Cl)cc2)CC1 [Compound 29, (E)-{1-[8-(2-chlorophenyl)-9-(4-chlorophenyl)-9H-purin-6-yl]piperidin-4-yl}(4-fluorophenyl)methanone oxime]
- CB2 Ki/CB1 Ki selectivity ratio (hCB1 [1]): 2500

Compound: O/N=C(\c1ccc(F)cc1)C1CCN(c2ncnc3c2nc(-c2ccccc2Cl)n3-c2ccc(Cl)cc2)CC1 [Compound 28, (Z)-{1-[8-(2-chlorophenyl)-9-(4-chlorophenyl)-9H-purin-6-yl]piperidin-4-yl}(4-fluorophenyl)methanone oxime]
- Kb (hCB1 [2]): 20 nM
- CB2 Ki/CB1 Ki selectivity ratio (hCB1 [1]): 3700
